According to patent US4471115A, “Water soluble derivatives of cephalex and process for their preparation” (Neopharmed S.p.A., priority 1980, dated 1984):
Structures can show the parent of a compound that is named as a salt. Where two headings read alike, the source gives them in different places.

Assays:
[1] = in vivo, po
clinical = settings: human, in vivo, po

Row | Structure (SMILES) | Peak time levels greater than those of substance B ([1]; human) | Blood concentration of substance A as multiple of substance B ([1]; human, 60 min) | Blood concentration of substance A as multiple of substance B ([1]; human, 180 min) | Blood concentration of substance A as multiple of substance B ([1]; human, 360 min) | Area under the curve (AUC) relative to that of substance B [1] | dose excreted at 24 h (clinical) [%]
1 | CC1=C(C(=O)O)N2C(=O)[C@@H](NC(=O)[C@H](NCO)c3ccccc3)[C@H]2SC1 [Example 1, Lysine salt of 2-N-methylol-cephalexin] | 3.5 | 1.3 | 3.5 | 24.0 | about two | 
2 | CC1=C(C(=O)O)N2C(=O)[C@@H](NC(=O)[C@H](N)c3ccccc3)[C@H]2SC1 [substance B, cephalexin monohydrated, reference compound] |  |  |  |  |  | 90.5
